The results in this text go back to PubChem BioAssay AID493014 (National Center for Advancing Translational Sciences (NCATS), 2011).

The test in a line: qHTS Assay to Find Inhibitors of Chronic Active B-Cell Receptor Signaling. As to conditions: ABC-DLBCL IkBa-CBG/CBR reporter, luminescence ratio (green luciferase fused to IkBa over red control in TMD8 lymphoma cells), 4 h. An outline of the steps: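 Concentration-response series (up to 46 uM) were applied to TMD8 dual-reporter cells for 4 h at 37C with doxycycline. Green/red ratio, after filter-overlap correction, defined %Activity; red signal alone was normalised to basal cells and zero luminescence.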
(qHTS replaces the single test concentration by a dilution series.)

The mark [1] stands for this setting: measured here: CBR red luminescence, cell number.
[2] abbreviates: measured here: IkBa-CBG green luminescence.

Some of the results follow. The main result of the screen is listed elsewhere. These columns were measured beside it and carry no call. Compounds called inactive in the main read-out are mostly missing here. Words in brackets tell the shape of the fitted curve; partial curves, single points and poor fits give uncertain potencies.

A word on the AC50: it is the concentration giving half of the maximal activity seen.

As for `O=C(NNc1cccc(Cl)n1)Nc1cccc(Cl)c1`, the AC50 under setting [1] is 1.64 µM [falling, full curve].

Consider `COC(=O)c1ccc(Oc2nc(NC(C)C)nc(SC)n2)cc1`, for which the AC50 under setting [1] is 4.11 µM [falling, full curve, poor fit].

On to `Cc1cccc(OCC(=O)NCc2n[nH]c(=O)c3ccccc23)c1`, for which the AC50 under setting [1] is 11.6 µM [falling, partial curve].

For `C/C(=N\NC(=O)c1cccs1)c1cccnc1`, the AC50 under setting [1] was 22.4 µM [falling, single point].

On to `CCCCCCN(C(=O)CCCCCN1C(=O)NC(c2ccc(-c3ccccc3)cc2)C(C(=O)OCc2ccccc2)=C1C)C(C(=O)NCCCC)c1ccccn1` (centres undefined), for which the AC50 under setting [1] is 7.94 µM [falling, partial curve, poor fit].

Consider `c1ccc2c(Nc3nnc(-c4ccncc4)s3)cccc2c1`, for which the AC50 under setting [1] is 12.6 µM [falling, partial curve, poor fit].

On to `COc1cc(/C=N/NC(=O)c2ccccc2)ccc1OS(=O)(=O)c1ccccc1`, for which the AC50 under setting [1] was 10.3 µM [falling, single point].

Regarding `O=C(Cc1ccc(F)cc1)NC1CCSC1=O` (centres undefined), the AC50 under setting [1] is 17.8 µM [rising, single point].

With `O=C(CCc1ccccc1)N=C1SC2CS(=O)(=O)CC2N1c1ccccc1F` (centres undefined), the AC50 under setting [1] is 2.51 µM [rising, full curve, poor fit].

Consider `COc1ccc2[nH]cc(C(=O)CN3CCN(C/C=C/c4ccccc4)CC3)c2c1`, for which the half-maximal activity concentration (AC50) under setting [1] is 10 µM [falling, partial curve, poor fit].

For the compound `CCN(CC)CCNc1ccc(CO)c2sc3ccccc3c(=O)c12`, the AC50 under setting [1] is 11.2 µM [falling, partial curve].

Regarding `Cc1c(C(=O)N2CCN(Cc3ccc4c(c3)OCO4)CC2)sc2ncnc(N3CCN(c4ccccc4)CC3)c12`, the AC50 under setting [1] was 6.31 µM [falling, partial curve].

As for `O=C(NNCc1ccc(O)cc1)c1ccccc1Cl`, under setting [1], the AC50 was 6.31 µM [falling, full curve].

Take `NC(=S)N/N=C/c1coc2cc(Cl)ccc2c1=O`: the AC50 was 5.17 µM [rising, full curve] under setting [1] and 4.11 µM [rising, full curve, poor fit] under setting [2].

Regarding `COc1ccc(C(CNC(=O)c2c(C)nn(Cc3ccc(C)cc3)c2Cl)N2CCOCC2)cc1` (centres undefined), the AC50 runs as follows: under setting [1], 29.1 µM [rising, single point]; under setting [2], 18.4 µM [falling, partial curve, poor fit].

Take `Cc1nc(Nc2ccncc2)c2oc3ccccc3c2n1`: the AC50 under setting [1] was 18.4 µM [falling, single point].

Take `Cc1ccc(Cc2nc(-c3ccccn3)no2)cc1`: the concentration at half-maximal activity (AC50) under setting [1] is 1 µM [rising, full curve, poor fit].

As to `COc1ccc(NC(=S)NC2CCCCC2)c(OC)c1`, the half-maximal activity concentration (AC50) under setting [1] was 35.5 µM [falling, single point].

Take `Cc1ccc(SCc2cc(=O)[nH]c(Nc3nc(C)c4ccccc4n3)n2)cc1`: the AC50 under setting [1] is 16.4 µM [rising, partial curve, poor fit].

In the case of `O=C(CSc1nc(-c2ccccc2)c(-c2ccccc2)[nH]1)N1CCN(S(=O)(=O)c2ccccc2)CC1`, the AC50 under setting [1] is 18.4 µM [falling, single point].

Take `CCOc1ccc(CN2CCN(CC3CC3)CC2CCO)cc1` (centres undefined): the AC50 under setting [1] is 6.31 µM [rising, partial curve, poor fit].

Consider `C/C(=N/NC(=O)c1cc(Cl)ccc1O)C12CC3CC(CC(C3)C1)C2`, for which the half-maximal activity concentration (AC50) under setting [1] was 1.78 µM [falling, full curve].

As for `CCOC(=O)C1=C(C)NC(SCC(=O)Nc2cc(C)on2)=C(C#N)C1c1cccs1` (centres undefined), the AC50 under setting [1] was 14.6 µM [falling, single point].

`O=[N+]([O-])c1ccc(OCc2nnc(-c3ccccc3)o2)cc1`: the concentration at half-maximal activity (AC50) under setting [1] is 11.2 µM [rising, partial curve, poor fit].

Consider `Cc1cccc(S(=O)(=O)Nc2ccc(-c3cn4ccccc4n3)cc2)c1`, for which, under setting [1], the AC50 is 13 µM [rising, partial curve].

In the case of `COc1cc(/C=C2\OC(=O)c3c(OC)cccc32)ccc1O`, the concentration at half-maximal activity (AC50) under setting [2] was 3.26 µM [falling, partial curve].

On to `COc1ccccc1OCCCOc1ccc(/C=C2\SC(=O)NC2=O)cc1OC`, for which the AC50 under setting [1] was 2.51 µM [rising, full curve].

Turning to `C/C(CC(=O)Nc1ccc2c(c1)OCCO2)=N\NC(=O)COc1ccccc1C`, under setting [1], the AC50 was 3.98 µM [falling, single point].

In the case of `O=C(c1ccco1)N1CCN(C(=S)NC2CC3CCC2C3)CC1` (centres undefined), the AC50 under setting [1] was 10 µM [rising, partial curve].

Regarding `CCCCC[C@H](O)/C=C/[C@@H]1[C@@H](C/C=C\CCCC(=O)OC)[C@@H](O)C[C@H]1O`, the AC50 under setting [1] is 1 µM [rising, full curve, poor fit] and the AC50 under setting [2] was 6.51 µM [falling, partial curve].

In the case of `Cc1ccc(S(=O)(=O)N2CCCCC2)cc1NC(=O)Cn1ccsc1=N`, the AC50 under setting [1] was 11.2 µM [falling, partial curve, poor fit].

For the compound `CC(/C=N/n1cnnc1)=C\c1ccco1`, the AC50 under setting [1] was 32.6 µM [rising, single point].

Take `COc1ccc(C)cc1S(=O)(=O)N(C)CC(=O)N1CCCCCC1`: the AC50 under setting [1] is 29.1 µM [rising, single point].

As to `COc1cccc(-n2c(-c3ccccc3)c[nH]c2=S)c1`, the AC50 under setting [1] was 8.91 µM [falling, partial curve].

Take `Cn1cccc1CNCC(O)c1ccccc1` (centres undefined): under setting [1], the AC50 was 0.282 µM [falling, full curve, poor fit].

On to `COc1ccc(-c2nc(C#N)c(N3CCCCC3)o2)cc1`, for which the AC50 under setting [1] was 3.16 µM [falling, partial curve].

Consider `COc1ccc(-n2c(=O)c3ccccc3n(CC(=O)Nc3cc(C)on3)c2=O)cc1OC`, for which the AC50 under setting [1] is 8.2 µM [rising, partial curve, poor fit].

For the compound `N#Cc1c(-c2cccs2)cc(-c2cccnc2)nc1N`, the AC50 under setting [1] was 7.94 µM [falling, partial curve, poor fit].

For `COCCNC(=S)N/N=C(\C)c1cc2ccccc2o1`, the AC50 was 29.1 µM [falling, single point] under setting [1] and 29.1 µM [falling, single point] under setting [2].

In the case of `O=C(CSc1nnc(Cn2c(=O)sc3ccccc32)n1-c1ccccc1)N1CCOCC1`, the AC50 under setting [1] was 15.8 µM [rising, single point].
